Results as given in PubChem BioAssay AID248 (DTP/NCI, 2004).
The list is a part of this screen's results and no random one: it gathers tests that were run many times, whatever their T/C, doses with no T/C, and many T/C values between a quarter and a half above the control. Other doses and runs of a compound stand elsewhere. T/C gives the treated animals as a percentage of the vehicle group. Some entries give survivors of the animals treated and no T/C: the source files T/C as zero there, which appears to mark a toxic dose or a test without result, not a measured value. Some doses without a T/C left all or most animals alive at the check, yet need not have been tolerated: the source hardly ever lists a survival T/C far under the control, and the zero likely stands for such cases as well. Counts of survivors are from the toxicity check (mostly the fifth day) where no day follows; animals may have died later. Schedule codes are those of the source, taken here to give the interval after Q, in days (D) or hours (H), and the number of doses after X. Signs of the kind (2×) give the number of equal values in this list. For survival time, this PubChem deposit counts one and a half times the control or more as active, and values a quarter to a half above the control carry no call in these data; other NCI protocols may use other cut-offs. Some T/C values are followed by the survivors on the day toxicity was checked, most often the fifth; without a count, all were alive then.

System: L1210 leukemia ip in BDF1 mice, survival T/C
Experiment: NCI In Vivo Anticancer Drug Screen. Data for tumor model L1210 Leukemia (intraperitoneal) in B6D2F1 (BDF1) mice
Conditions: T/C endpoint: mean survival time, higher T/C = longer survival
[1] = dose: 400.0 mg/kg/injection, schedule: Q04DX003 (ip), vehicle: saline with Tween-80
[2] = dose: 400.0 mg/kg/injection, schedule: Q01DX001 (ip), vehicle: saline

For O=[As](O)(CC(O)COc1ccccc1)c1cccc(Cl)c1 (stereo unspecified), the survivor count (dose: 25.0 mg/kg/injection, schedule: Q04DX003 (ip), vehicle: saline with Tween-80) was 6 of 6, the survivor count (dose: 50.0 mg/kg/injection, schedule: Q04DX003 (ip), vehicle: saline with Tween-80) was 6 of 6 and the survivor count (dose: 100.0 mg/kg/injection, schedule: Q04DX003 (ip), vehicle: saline with Tween-80) was 0 of 6 (2×). The survivor count (dose: 200.0 mg/kg/injection, schedule: Q04DX003 (ip), vehicle: saline with Tween-80) was 0 of 6 and the survivor count [1] was 0 of 6.
In the case of c1ccc(N2N=NC3C4CC(C5COCC54)C32)cc1 (stereo unspecified), the T/C (dose: 100.0 mg/kg/injection, schedule: Q01DX009 (ip), vehicle: Klucel (hydroxypropylcellulose) (HPC)) is reported as 128 % of control and the survivor count (dose: 400.0 mg/kg/injection, schedule: Q01DX009 (ip), vehicle: Klucel (hydroxypropylcellulose) (HPC)) is reported as 6 of 6.
CC(=O)c1cc2ccccc2o1 was tested, and the T/C (dose: 25.0 mg/kg/injection, schedule: Q04DX003 (ip), vehicle: water) was 126 % of control [9 of 10 alive].
With CCOC(=O)N(CCCCCCNC(c1ccccc1)S(=O)(=O)O)c1ccccc1 (stereo unspecified) the survivor count (dose: 100.0 mg/kg/injection, schedule: Q01DX009 (ip), vehicle: saline) was 5 of 6, the survivor count (dose: 200.0 mg/kg/injection, schedule: Q01DX001 (ip), vehicle: carboxymethylcellulose (CMC)) was 3 of 6 and the survivor count (dose: 200.0 mg/kg/injection, schedule: Q01DX001 (ip), vehicle: saline) was 1 of 4. For the same compound, the survivor count (dose: 200.0 mg/kg/injection, schedule: Q01DX009 (ip), vehicle: saline) was 0 of 6, the survivor count (dose: 300.0 mg/kg/injection, schedule: Q01DX009 (ip), vehicle: saline) was 0 of 6 and the survivor count (dose: 400.0 mg/kg/injection, schedule: Q01DX001 (ip), vehicle: carboxymethylcellulose (CMC)) was 0 of 6. For the same compound, the survivor count [2] was 0 of 4 and the survivor count (dose: 800.0 mg/kg/injection, schedule: Q01DX001 (ip), vehicle: saline) was 0 of 4.
In the case of O=Cc1ccc(C(=O)O)cc1O, the survivor count [1] is reported as 2 of 3.
With CCCC(C)(O)C#CC(C)(O)CCC (stereo unspecified) the survivor count [1] was 0 of 6.
O=NN(CCCl)C(=O)NC1CCC(NC(=O)N(CCCl)N=O)CC1 (stereo unspecified) was tested, and the survivor count (dose: 337.0 mg/kg/injection, schedule: Q01DX001 (ip), vehicle: other) was 9 of 9.
CC1=C(CCCO)/C(=N/Nc2ccc([N+](=O)[O-])cc2[N+](=O)[O-])CCC1 was tested, and the survivor count (dose: 50.0 mg/kg/injection, schedule: Q04DX002 (ip), vehicle: saline with Tween-80) was 3 of 3 and the survivor count (dose: 100.0 mg/kg/injection, schedule: Q04DX002 (ip), vehicle: saline with Tween-80) was 3 of 3.
In the case of CN(C)/N=C/c1nccc2ccccc12, the survivor count [2] is reported as 0 of 4.
Cc1cc2nc3c(=O)[nH]c(=O)nc-3n(CC(O)C(O)C(O)C(O)CO)c2cc1C (stereo unspecified) was tested, and the survivor count (dose: 800.0 mg/kg/injection, schedule: Q01DX015 (ip), vehicle: saline) was 4 of 6 and the survivor count (dose: 1600.0 mg/kg/injection, schedule: Q01DX001 (ip), vehicle: acetone) was 0 of 6.
In the case of COc1cc2c(cc1OC)C1CCN3CCCC3N1CC2 (stereo unspecified), the survivor count (dose: 200.0 mg/kg/injection, schedule: Q04DX003 (ip), vehicle: Klucel (hydroxypropylcellulose) (HPC)) is reported as 3 of 6 and the survivor count (dose: 400.0 mg/kg/injection, schedule: Q04DX003 (ip), vehicle: Klucel (hydroxypropylcellulose) (HPC)) is reported as 1 of 6.
With Cc1ccc(C(=O)NCCCOc2ccc(N)cc2Cl)cc1S(=O)(=O)F the survivor count (dose: 400.0 mg/kg/injection, schedule: Q01DX009 (ip), vehicle: saline with Tween-80) was 3 of 6.
CCCCC(C)(CCN)CCCC was tested, and the survivor count (dose: 200.0 mg/kg/injection, schedule: Q01DX015 (ip), vehicle: carboxymethylcellulose (CMC)) was 0 of 6.
With O=N[O-].O=N[O-].O=N[O-].O=N[O-].[Co+2].[NH2-].[NH2-] the survivor count [1] was 0 of 3.
O=[N+]([O-])c1ccc(S(=O)(=O)N2CCN(S(=O)(=O)c3ccc([N+](=O)[O-])cc3)C2)cc1 was tested, and the survivor count (dose: 200.0 mg/kg/injection, schedule: Q01DX009 (ip), vehicle: Klucel (hydroxypropylcellulose) (HPC)) was 6 of 6.
NC(=O)N/C=C1\CCCOC1=O was tested, and the survivor count [1] was 2 of 6.
